“Also recorded” adds a separate entry of the source. For at least one compound, name, drawing or mass did not settle the structure.
What was measured:
[1] = test system: orthotopic transplantation tumor of human BxPC-3; test: Growth inhibition of orthotopic transplantation tumor of human BxPC-3 in nude mice; format: in vivo; settings: 0.2 mmol/kg intraperitoneally, twice per week for 4 weeks; compared with gemcitabine and NUC-1031 groups; FIG. 1
[2] = test system: subcutaneous transplantation tumor of human BxPC-3; test: Growth inhibition of subcutaneous transplantation tumor of human BxPC-3 in nude mice, with animal weight; format: in vivo; settings: for Pancreatic cancer tumor tissue volume: FIG. 2
Method: Take BxPC-3 human pancreatic cancer cells in the logarithmic growth phase, inoculate subcutaneously on the back of nude mice at a concentration of 5×10^6 cells·0.2 mL^−1·mouse^−1, three weeks later, after the long diameters of the transplanted tumors in nude mice were all ≥5 mm, calculate the similar volume of tumor bodies based on the long diameter and short diameter of the transplanted tumors. Nude mice were divided into 5 groups by a random block design and allocation method according to the tumor volume.
Administration scheme: 50 model animals were randomly divided into a negative control group, a low-dose group (compound 001, 0.1 mmol/kg), a high-dose group (compound 001, 0.4 mmol/kg), a gemcitabine hydrochloride group (0.2 mmol/kg), and a combined administration group (compound 001, 0.1 mmol/kg+ gemcitabine hydrochloride, 0.1 mmol/kg), intraperitoneally injected (twice per week) for 3 weeks, and killed one week after drug withdrawal. At the same time, animal weight was measured and the eye condition of the animal was observed.

`CC(OC(=O)[C@H](C)NP(=O)(OC[C@H]1O[C@@H](n2ccc(N)nc2=O)C(F)(F)C1O)Oc1ccccc1)c1ccc([N+](=O)[O-])cc1` (stereo partly shown) [Compound 001] was tested, and the “Pancreatic tumor tissue quality (weighed)” value [1] was “significantly lower than those of the gemcitabine group and the NUC-1031 group; also recorded: significantly lower than that of a gemcitabine group and an NUC-1031 group”, the “Pancreatic cancer tumor tissue volume” value ([2]; combined administration: compound 001 0.1 mmol/kg + gemcitabine hydrochloride 0.1 mmol/kg i.p. twice per week for 3 weeks) was “better anti-tumor effect; also recorded: significantly lower than that of a gemcitabine group” and the “Pancreatic cancer tumor tissue volume” value ([2]; high-dose group, compound 001 0.4 mmol/kg i.p. twice per week for 3 weeks, compared with gemcitabine group) was “significantly lower than that of a gemcitabine group”. For the same compound, the “Tumor growth inhibition effect” value ([2]; treated groups in general, i.p. twice per week for 3 weeks, FIG. 2 (b35 also cites FIG. 1)) was “significant anti-tumor growth effect”.

Source: US10709725B2, “Gemcitabine ProTide hypoxia-activated prodrug and application thereof” (JIANGSU QIANZHIKANG BIOLOGICAL MEDICINE SCIENCE AND …, priority 2016, dated 2020)
